{"source": "patent US8394829B2", "about": "“Bi-functional quinoline analogs” (Gilead Sciences, Inc., priority 2010, dated 2013)", "note": "Some of these results come from one statement about several compounds together.", "data": [{"system": "LPS-induced neutrophil recruitment into the lungs", "experiment": "Inhibition of LPS-induced neutrophil recruitment into the lungs of Lewis rats", "format": "in vivo", "conditions": "intra-tracheal dose of 300 μg/kg, 2 h before LPS aerosol, BAL 4 h post-LPS", "experimental": "Inhibition of Lipoploysaccharide (LPS)-Induced Neutrophil Recruitment into the Lungs of Lewis Rats\nRats were anesthetized with 4% isoflurane, placed in the supine position at an angle of 30°, the mouth opened and the trachea exposed. A 22-gauge needle with a syringe attached was introduced into the trachea and test compound in suspension (200 μl volume per 400 g) was delivered into the lungs from approximately one centimeter above the carina. The rats were allowed to recover and two hrs later conscious animals were placed into a chamber and exposed to aerosolized LPS (1.0 mg/mL) at a rate of 3.0 L/min for 20 min. Rats were euthanized 4 h post-LPS exposure by an overdose of pentobarbital (90 mg/kg) by intra-peritoneal injection. Broncheoalveolar lavage (BAL) was then performed with a 14 gauge blunt needle into the exposed trachea. Five, 5 ml washes of PBS were collect from the lungs and placed into Falcon tubes then centrifuged at a 1600 g for 10 min at 4° C. The supernatant was discarded, the cells were re-suspended in PBS and total cell counts were determined based on a 10 μl sample of re-suspended cells stained with trypan blue and counts performed using a Countess® cell counter (Invitrogen). Differential cell counts to determine the number of neutrophils in the BAL wash were performed on cytospun cells stained with May-Grunwald and Giemsa solution. Manual eye counting was performed to determine the percentage number of cells in the cytospun sample (determined as macrophages, neutrophils, eosinophils, T-lymphocytes and eosinophils) and these values were used to determine the total number of each cell type per sample. Typically experiments contained a minimum of six rats per experimental group and the mean±SEM number of neutrophils was determined for each group. The level of neutrophil inhibition caused by test compounds dosed directly into the lungs was determined compared to the vehicle-treated and LPS-exposed control rats. Statistical analysis to determine significant differences between groups were performed by one-way analysis of variance (ANOVA) using GraphPad Prism 5 for Windows, version 5.02 (GraphPad Software, San Diego Calif.).", "values": [{"smiles": "COc1cccc(Nc2c(C(N)=O)cnc3c(C)cc(S(=O)(=O)c4cccc(C(=O)Nc5ccc(C#CCCCNC[C@H](O)c6cc(O)cc7c6OCC(=O)N7)cc5)c4)cc23)c1", "note": "[Example 24, (R)-6-((3-((4-(5-((2-hydroxy-2-(6-hydroxy-3-oxo-3,4-dihydro-2H-benzo[b][1,4]oxazin-8-yl)ethyl)amino)pent-1-yn-1-yl)phenyl)carbamoyl)phenyl)sulfonyl)-4-((3-methoxyphenyl)amino)-8-methylquinoline-3-carboxamide]", "neutrophil inhibition": "greater than 40%"}, {"smiles": "COc1cccc(Nc2c(C(N)=O)cnc3c(C)cc(S(=O)(=O)c4cccc(C(=O)NCCCCCCNC[C@H](O)c5ccc(O)c(NC=O)c5)c4)cc23)c1", "note": "[Example 27, (R)-6-[[3-[[6-[[2-(3-Formamido-4-hydroxyphenyl)-2-hydroxyethyl]amino]hexyl]carbamoyl]phenyl]sulfonyl]-4-((3-methoxyphenyl)amino]-8-methylquinoline-3-carboxamide]", "neutrophil inhibition": "greater than 40%"}, {"smiles": "COc1cccc(Nc2c(C(N)=O)cnc3c(C)cc(S(=O)(=O)c4cccc(C(=O)Nc5ccc(CCNC[C@H](O)c6ccc(O)c7[nH]c(=O)ccc67)cc5)c4)cc23)c1", "note": "[Example 12, (R)-6-[[3-[[4-[2-[[2-Hydroxy-2-(8-hydroxy-2-oxo-1,2-dihydroquinolin-5-yl)ethyl]amino]ethyl]phenyl]carbamoyl]phenyl]sulfonyl]-4-[(3-methoxyphenyl)amino]-8-methylquinoline-3-carboxamide]", "neutrophil inhibition": "greater than 40%"}, {"smiles": "COc1cccc(Nc2c(C(N)=O)cnc3c(C)cc(S(=O)(=O)c4cccc(C(=O)Nc5ccc(C#CCCCNC[C@H](O)c6ccc(O)c7c6OCC(=O)N7)cc5C)c4)cc23)c1", "note": "[Example 35, (R)-6-((3-((4-(5-((2-hydroxy-2-(5-hydroxy-3-oxo-3,4-dihydro-2H-benzo[b][1,4]oxazin-8-yl)ethyl)amino)pent-1-yn-1-yl)-2-methylphenyl)carbamoyl)phenyl)sulfonyl)-4-((3-methoxyphenyl)amino)-8-methylquinoline-3-carboxamide]", "neutrophil inhibition": "greater than 40%"}, {"smiles": "COc1cccc(Nc2c(C(N)=O)cnc3c(C)cc(S(=O)(=O)c4cccc(C(=O)Nc5ccc(CCCCCNC[C@H](O)c6ccc(O)c7[nH]c(=O)ccc67)cc5)c4)cc23)c1", "note": "[Example 10, (R)-6-[[3-[[4-[5-[[2-Hydroxy-2-(8-hydroxy-2-oxo-1,2-dihydroquinolin-5-yl)ethyl]amino]pentyl]phenyl]carbamoyl]phenyl]sulfonyl]-4-[(3-methoxyphenyl)amino]-8-methylquinoline-3-carboxamide 2,2,2-trifluoroacetate]", "neutrophil inhibition": "greater than 40%"}, {"smiles": "COc1cccc(Nc2c(C(N)=O)cnc3c(C)cc(S(=O)(=O)c4cccc(C(=O)Nc5ccc(C#CCCCN(C)C[C@H](O)c6ccc(O)c7[nH]c(=O)ccc67)cc5)c4)cc23)c1", "note": "[Example 8, (R)-6-((3-((4-(5-((2-hydroxy-2-(8-hydroxy-2-oxo-1,2-dihydroquinolin-5-yl)ethyl)(methyl)amino)pent-1-yn-1-yl)phenyl)carbamoyl)phenyl)sulfonyl)-4-((3-methoxyphenyl)amino)-8-methylquinoline-3-carboxamide]", "neutrophil inhibition": "greater than 40%"}]}, {"system": "acetylcholine-induced bronchoconstriction", "experiment": "Inhibition of acetylcholine-induced bronchoconstriction in Dunkin-Hartley guinea pigs", "format": "in vivo", "conditions": "intra-tracheal, doses below of 125 μg/kg, ACh challenge 4 hrs after dosing, Penh AUC", "values": [{"smiles": "COc1cccc(Nc2c(C(N)=O)cnc3c(C)cc(S(=O)(=O)c4cccc(C(=O)Nc5ccc(CCNC[C@H](O)c6ccc(O)c7[nH]c(=O)ccc67)cc5)c4)cc23)c1", "note": "[Example 12, (R)-6-[[3-[[4-[2-[[2-Hydroxy-2-(8-hydroxy-2-oxo-1,2-dihydroquinolin-5-yl)ethyl]amino]ethyl]phenyl]carbamoyl]phenyl]sulfonyl]-4-[(3-methoxyphenyl)amino]-8-methylquinoline-3-carboxamide]", "bronchoprotection at 4 hour": "greater than 75%"}]}]}
